These are yes or no findings as the source states them, for the method shown. Binding can be weak; no strength is given.
Target: Acidiphilium IS1634 transposase, wild type (Acidiphilium sp. PM)
Test: pull-down; 12 μM Tnp covalently coupled to tosyl-activated magnetic beads (Dynabeads M-280); 5 μM β labeled with Alexa Fluor 350 (or labelled PCNA) in solution; PBS, 0.1% Tween-20, 0.1% BSA, pH 7.2; 15 min, 25 °C; three washes; SDS-PAGE, UV; both purified

binding: binds
B1: Leptospirillum ferrooxidans β sliding clamp (protein, UniProt I0IKD4 1-385)
chain: MEIIVDQETFLDGVQRIAALTDRKNAALVGSQVLLDAQGETVTLYASDTQTGGRFELPAKVLAPGKTTVPGKTLFNLIRQLPPGDLTITRDASGLTRIERERIQNSLKGINPDEFNVFPEITAEYSFLVPLGAFLDQLKKSLPFASDEEGKPLNGILLTRELGDKGQPILNMVSTDGHRLHHGVILLGEDAGGSVTGQSESRFILKKRNLQELAHVLELDAKDPNMSIEIVLNPKYVTFRWGRFYYFARLLSTPYPNYKEAFPQDFTVGVEISRESLDSALKRVSVVSDKKPEVIFDWNDRFLVLRTMNEEIGESIETIPAFVRGESGSLIFKIDFLRVLLAVTSGETIRFDVRYGKEYGAKDSMPVIWRALDDPHSRYVLMPMG
modifications: labeled with Alexa Fluor 350 C5-maleimide

Source: publication PMC4549789
